According to patent US8410161B2, “Thioxanthone ring system derivatives” (National Defense Medical Center, priority 2010, dated 2013):

Test system: 60 cancer lines
Test: NCI cell toxicity assay of 60 cancer lines, whole panel summary
Assay type: cell-based, human
Conditions: 1.00E−5 Molar; for Growth Percent, Delta: Delta over all cell lines; for Growth Percent, Range: Range over all cell lines
Protocol: Then, a cell toxicity assay of the cancer lines made by National Cancer Institute will be discussed as follows. The cell toxicity assay is performed by choosing ten compounds (existing certification numbers) from the 59 compounds disclosed in the present invention first.

O=c1c2ccccc2sc2c(Cl)c(SCc3ccc(F)cc3)ccc12 [No. 24, 4-Chloro-3-(4-fluorobenzylthio)-9H-thioxanthen-9-one]
Growth Percent, Delta: 62.01%
Growth Percent, Range: 86.46%

O=c1c2ccccc2sc2c(Cl)c(Sc3ccc(Cl)cc3)ccc12 [No. 29, 4-Chloro-3-(4-chlorophenylthio)-9H-thioxanthen-9-one]
Growth Percent, Delta: 46.86%
Growth Percent, Range: 83.35%

O=c1c2ccccc2sc2c(Cl)c(Sc3ccccc3)ccc12 [No. 6, 4-Chloro-3-(phenylthio)-9H-thioxanthen-9-one]
Growth Percent, Delta: 23.07%
Growth Percent, Range: 45.91%

O=c1c2ccccc2sc2c(Cl)c(SCc3ccccc3)ccc12 [No. 23, 3-(Benzylthio)-4-chloro-9H-thioxanthen-9-one]
Growth Percent, Delta: 66.12%
Growth Percent, Range: 104.00%

Cc1cccc(C)c1Sc1ccc2c(=O)c3ccccc3sc2c1Cl [No. 12, 4-Chloro-3-(2,6-dimethylphenylthio)-9H-thioxanthen-9-one]
Growth Percent, Delta: 15.49%
Growth Percent, Range: 26.75%

Cc1cc(C)cc(Sc2ccc3c(=O)c4ccccc4sc3c2Cl)c1 [No. 14, 4-Chloro-3-(3,5-dimethylphenylthio)-9H-thioxanthen-9-one]
Growth Percent, Delta: 16.88%
Growth Percent, Range: 36.28%

COc1ccc(CSc2ccc3c(=O)c4ccccc4sc3c2Cl)cc1 [No. 27, 4-Chloro-3-(4-methoxybenzylthio)-9H-thioxanthen-9-one]
Growth Percent, Delta: 24.42%
Growth Percent, Range: 46.45%

CCCSc1ccc2c(=O)c3ccccc3sc2c1Cl [No. 3, 4-Chloro-3-(propylthio)-9H-thioxanthen-9-one]
Growth Percent, Delta: 31.48%
Growth Percent, Range: 58.76%

O=c1c2ccccc2sc2c(Cl)c(SCc3ccc(Cl)cc3)ccc12 [No. 26, 4-Chloro-3-(4-chlorobenzylthio)-9H-thioxanthen-9-one]
Growth Percent, Delta: 29.58%
Growth Percent, Range: 60.22%

COc1cccc(Sc2ccc3c(=O)c4ccccc4sc3c2Cl)c1 [No. 16, 4-Chloro-3-(3-methoxylphenylthio)-9H-thioxanthen-9-one]
Growth Percent, Delta: 15.56%
Growth Percent, Range: 32.19%

Some results come without the dose or concentration used.
